In the supplement of paper PMC12823440, “Inhibitors supercharge kinase turnover through native proteolytic circuits” (Nature, 2025):
This is one part of the list. The calls rarely recur for the same compound in another form.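 In K562 cells expressing nanoluciferase-fused kinases, luminescence was recorded at 4 h intervals between 2 and 18 h, normalized as percent of control with DMSO at 100% and a positive control at 0%. A significant (2 sigma) signal drop marks a time point as decreased. The authors' rule for a hit is not shown and takes in more than the number of time points.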

Protein sequences, listed by entry. Tags and fused reporters are not part of them. Lines headed by an entry give the natural chain unless they say otherwise; changes in a name come on top.
UniProt Q01974, whole entry: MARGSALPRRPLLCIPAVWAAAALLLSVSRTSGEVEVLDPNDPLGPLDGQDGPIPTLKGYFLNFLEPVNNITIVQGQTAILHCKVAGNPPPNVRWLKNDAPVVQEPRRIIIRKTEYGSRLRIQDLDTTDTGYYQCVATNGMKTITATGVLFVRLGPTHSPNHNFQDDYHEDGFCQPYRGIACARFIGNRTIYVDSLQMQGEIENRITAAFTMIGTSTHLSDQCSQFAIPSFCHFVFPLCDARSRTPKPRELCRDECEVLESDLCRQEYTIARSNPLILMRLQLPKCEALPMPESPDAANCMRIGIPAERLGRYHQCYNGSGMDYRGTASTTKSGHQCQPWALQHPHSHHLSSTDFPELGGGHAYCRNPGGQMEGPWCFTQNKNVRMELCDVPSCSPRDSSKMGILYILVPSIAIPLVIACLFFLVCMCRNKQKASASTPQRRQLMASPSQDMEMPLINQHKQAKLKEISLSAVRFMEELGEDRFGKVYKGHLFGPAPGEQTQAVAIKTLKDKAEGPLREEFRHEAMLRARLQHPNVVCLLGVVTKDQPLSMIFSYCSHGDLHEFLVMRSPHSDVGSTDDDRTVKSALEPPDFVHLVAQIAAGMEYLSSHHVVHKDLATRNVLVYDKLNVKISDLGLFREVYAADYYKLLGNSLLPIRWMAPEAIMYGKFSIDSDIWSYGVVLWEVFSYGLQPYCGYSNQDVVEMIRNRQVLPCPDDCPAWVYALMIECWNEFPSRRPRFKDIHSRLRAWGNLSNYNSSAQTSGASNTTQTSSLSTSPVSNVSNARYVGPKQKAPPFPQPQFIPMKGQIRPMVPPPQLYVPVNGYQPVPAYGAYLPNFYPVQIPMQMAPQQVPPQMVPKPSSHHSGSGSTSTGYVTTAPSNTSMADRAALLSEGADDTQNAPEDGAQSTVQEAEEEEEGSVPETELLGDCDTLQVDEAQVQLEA
UniProt Q15418, whole entry: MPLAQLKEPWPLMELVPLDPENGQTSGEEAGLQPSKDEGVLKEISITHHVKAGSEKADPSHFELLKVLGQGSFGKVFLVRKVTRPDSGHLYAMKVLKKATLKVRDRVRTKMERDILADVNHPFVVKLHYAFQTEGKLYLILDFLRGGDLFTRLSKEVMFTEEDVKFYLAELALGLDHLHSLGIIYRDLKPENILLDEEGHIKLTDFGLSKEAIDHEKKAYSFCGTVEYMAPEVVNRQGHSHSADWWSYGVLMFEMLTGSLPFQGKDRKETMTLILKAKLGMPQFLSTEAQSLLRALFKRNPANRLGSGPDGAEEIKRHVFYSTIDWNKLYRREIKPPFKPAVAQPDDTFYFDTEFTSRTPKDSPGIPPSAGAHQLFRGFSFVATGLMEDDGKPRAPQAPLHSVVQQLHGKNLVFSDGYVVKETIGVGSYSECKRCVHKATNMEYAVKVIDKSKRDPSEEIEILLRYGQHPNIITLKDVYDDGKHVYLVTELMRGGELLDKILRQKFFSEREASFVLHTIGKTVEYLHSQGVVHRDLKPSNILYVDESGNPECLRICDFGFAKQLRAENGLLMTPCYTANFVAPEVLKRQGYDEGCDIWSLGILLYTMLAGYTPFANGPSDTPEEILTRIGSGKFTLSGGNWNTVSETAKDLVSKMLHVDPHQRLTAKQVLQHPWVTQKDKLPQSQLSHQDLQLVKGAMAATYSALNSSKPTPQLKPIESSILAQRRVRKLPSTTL
UniProt Q9Y6E0: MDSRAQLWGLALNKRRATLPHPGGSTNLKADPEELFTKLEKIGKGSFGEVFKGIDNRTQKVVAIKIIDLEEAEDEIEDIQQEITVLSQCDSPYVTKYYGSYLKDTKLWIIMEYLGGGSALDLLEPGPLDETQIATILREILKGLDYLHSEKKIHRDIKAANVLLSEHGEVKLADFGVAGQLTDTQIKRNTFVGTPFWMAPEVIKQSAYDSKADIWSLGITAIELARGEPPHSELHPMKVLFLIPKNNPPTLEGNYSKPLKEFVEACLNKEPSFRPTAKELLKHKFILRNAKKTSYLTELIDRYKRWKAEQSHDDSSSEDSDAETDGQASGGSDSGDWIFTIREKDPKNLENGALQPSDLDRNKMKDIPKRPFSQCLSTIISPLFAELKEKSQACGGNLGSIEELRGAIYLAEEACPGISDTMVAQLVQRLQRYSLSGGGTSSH
UniProt Q15208: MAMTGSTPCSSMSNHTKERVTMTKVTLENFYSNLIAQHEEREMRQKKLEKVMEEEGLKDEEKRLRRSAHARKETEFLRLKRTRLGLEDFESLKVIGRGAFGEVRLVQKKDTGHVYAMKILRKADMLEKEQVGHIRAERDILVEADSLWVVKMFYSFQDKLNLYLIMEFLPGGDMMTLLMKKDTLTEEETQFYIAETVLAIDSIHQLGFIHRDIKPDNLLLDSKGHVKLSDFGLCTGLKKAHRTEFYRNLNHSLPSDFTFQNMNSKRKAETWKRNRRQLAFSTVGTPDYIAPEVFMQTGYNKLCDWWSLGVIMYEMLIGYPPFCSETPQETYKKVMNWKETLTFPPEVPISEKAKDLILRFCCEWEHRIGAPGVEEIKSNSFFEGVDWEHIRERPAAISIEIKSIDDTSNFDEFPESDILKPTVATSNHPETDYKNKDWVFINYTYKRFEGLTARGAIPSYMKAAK
UniProt P42680: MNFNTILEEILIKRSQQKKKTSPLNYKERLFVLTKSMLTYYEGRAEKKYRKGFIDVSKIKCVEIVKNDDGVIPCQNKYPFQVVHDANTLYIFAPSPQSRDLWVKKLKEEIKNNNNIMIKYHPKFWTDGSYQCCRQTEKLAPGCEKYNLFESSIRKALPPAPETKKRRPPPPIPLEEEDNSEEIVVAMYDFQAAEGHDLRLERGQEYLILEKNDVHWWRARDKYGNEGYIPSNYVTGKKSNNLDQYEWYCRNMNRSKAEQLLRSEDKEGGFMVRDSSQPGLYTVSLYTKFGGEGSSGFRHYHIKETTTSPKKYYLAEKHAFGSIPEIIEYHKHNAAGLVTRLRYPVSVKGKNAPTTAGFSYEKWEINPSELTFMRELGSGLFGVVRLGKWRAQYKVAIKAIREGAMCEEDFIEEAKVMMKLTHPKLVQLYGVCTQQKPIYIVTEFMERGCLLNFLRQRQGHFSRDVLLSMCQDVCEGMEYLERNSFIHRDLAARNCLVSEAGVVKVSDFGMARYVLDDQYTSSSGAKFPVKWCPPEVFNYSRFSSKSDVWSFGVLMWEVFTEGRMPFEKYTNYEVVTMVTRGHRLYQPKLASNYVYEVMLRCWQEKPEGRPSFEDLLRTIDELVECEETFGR
UniProt P29597: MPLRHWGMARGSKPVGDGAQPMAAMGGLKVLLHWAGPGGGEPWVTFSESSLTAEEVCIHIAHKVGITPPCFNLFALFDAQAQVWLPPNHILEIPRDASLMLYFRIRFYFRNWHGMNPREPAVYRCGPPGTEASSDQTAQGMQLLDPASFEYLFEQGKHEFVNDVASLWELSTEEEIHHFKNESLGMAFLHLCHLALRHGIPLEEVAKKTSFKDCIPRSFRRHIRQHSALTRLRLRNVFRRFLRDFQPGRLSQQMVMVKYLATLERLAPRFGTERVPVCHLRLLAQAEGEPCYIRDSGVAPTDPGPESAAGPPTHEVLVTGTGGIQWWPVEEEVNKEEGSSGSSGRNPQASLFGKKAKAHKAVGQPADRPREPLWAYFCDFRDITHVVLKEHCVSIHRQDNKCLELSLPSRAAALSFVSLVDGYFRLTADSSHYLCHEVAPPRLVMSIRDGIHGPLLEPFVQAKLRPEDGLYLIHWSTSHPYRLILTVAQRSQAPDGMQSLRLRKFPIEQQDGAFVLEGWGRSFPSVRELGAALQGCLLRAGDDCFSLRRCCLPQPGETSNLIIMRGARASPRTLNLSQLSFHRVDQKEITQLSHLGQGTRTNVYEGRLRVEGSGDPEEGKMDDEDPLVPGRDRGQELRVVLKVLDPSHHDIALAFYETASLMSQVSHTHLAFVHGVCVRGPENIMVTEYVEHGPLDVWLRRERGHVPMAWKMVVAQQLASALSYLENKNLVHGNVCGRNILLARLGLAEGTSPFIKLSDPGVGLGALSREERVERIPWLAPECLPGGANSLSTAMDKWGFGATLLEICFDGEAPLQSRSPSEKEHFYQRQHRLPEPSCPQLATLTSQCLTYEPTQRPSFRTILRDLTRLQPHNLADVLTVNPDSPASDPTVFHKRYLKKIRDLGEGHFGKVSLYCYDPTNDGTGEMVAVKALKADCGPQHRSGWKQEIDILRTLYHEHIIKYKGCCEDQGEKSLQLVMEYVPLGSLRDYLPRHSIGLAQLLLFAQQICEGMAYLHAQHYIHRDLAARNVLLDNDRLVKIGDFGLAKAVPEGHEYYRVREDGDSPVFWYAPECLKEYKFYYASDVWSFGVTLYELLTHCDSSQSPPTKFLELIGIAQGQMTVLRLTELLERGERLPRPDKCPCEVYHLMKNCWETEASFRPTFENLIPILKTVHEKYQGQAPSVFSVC
UniProt Q6PHR2: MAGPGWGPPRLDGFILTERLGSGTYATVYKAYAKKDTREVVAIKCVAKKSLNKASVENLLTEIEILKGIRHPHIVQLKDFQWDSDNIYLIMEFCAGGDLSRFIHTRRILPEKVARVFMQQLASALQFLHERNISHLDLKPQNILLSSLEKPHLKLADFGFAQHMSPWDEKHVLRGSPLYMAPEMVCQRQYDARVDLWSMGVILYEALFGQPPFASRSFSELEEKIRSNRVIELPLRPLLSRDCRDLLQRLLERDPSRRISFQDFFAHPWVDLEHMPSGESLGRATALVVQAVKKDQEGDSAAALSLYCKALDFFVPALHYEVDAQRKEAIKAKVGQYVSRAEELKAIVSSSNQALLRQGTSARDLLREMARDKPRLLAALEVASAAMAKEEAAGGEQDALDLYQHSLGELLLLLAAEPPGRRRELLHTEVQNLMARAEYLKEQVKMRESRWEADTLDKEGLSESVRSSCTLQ
UniProt P43403: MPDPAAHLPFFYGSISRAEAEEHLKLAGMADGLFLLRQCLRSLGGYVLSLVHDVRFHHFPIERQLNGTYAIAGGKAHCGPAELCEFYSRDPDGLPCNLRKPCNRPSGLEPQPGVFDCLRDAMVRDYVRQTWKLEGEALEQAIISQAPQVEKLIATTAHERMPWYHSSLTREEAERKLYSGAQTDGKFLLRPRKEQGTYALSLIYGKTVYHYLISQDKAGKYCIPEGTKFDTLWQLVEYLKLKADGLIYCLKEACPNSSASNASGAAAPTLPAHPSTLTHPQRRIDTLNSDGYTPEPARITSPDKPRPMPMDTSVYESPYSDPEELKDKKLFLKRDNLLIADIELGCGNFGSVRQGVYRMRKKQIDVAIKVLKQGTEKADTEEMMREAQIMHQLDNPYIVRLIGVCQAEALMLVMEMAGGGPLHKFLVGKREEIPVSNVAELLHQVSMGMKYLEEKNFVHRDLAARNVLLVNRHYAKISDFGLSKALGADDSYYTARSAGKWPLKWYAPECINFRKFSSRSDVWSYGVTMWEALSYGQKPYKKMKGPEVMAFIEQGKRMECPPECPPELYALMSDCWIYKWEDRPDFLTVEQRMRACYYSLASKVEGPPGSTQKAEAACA
UniProt P11802: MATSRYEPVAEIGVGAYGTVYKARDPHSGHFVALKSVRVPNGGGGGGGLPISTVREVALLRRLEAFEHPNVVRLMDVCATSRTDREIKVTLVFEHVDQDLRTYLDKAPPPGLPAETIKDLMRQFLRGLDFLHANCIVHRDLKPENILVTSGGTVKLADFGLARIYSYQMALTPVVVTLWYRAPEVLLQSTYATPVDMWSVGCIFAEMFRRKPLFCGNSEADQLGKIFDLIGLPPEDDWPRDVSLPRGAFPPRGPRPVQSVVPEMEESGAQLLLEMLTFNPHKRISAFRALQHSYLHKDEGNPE
UniProt P50613: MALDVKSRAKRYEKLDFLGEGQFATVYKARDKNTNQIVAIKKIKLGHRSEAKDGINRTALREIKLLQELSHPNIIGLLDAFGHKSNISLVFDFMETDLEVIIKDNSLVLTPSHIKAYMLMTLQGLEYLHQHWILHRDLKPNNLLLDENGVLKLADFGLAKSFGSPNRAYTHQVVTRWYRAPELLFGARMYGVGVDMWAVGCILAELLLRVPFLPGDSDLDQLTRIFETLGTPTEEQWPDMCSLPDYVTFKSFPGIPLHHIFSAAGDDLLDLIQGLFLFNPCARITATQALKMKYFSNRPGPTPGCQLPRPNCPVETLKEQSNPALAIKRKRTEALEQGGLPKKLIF
UniProt P50750, whole entry: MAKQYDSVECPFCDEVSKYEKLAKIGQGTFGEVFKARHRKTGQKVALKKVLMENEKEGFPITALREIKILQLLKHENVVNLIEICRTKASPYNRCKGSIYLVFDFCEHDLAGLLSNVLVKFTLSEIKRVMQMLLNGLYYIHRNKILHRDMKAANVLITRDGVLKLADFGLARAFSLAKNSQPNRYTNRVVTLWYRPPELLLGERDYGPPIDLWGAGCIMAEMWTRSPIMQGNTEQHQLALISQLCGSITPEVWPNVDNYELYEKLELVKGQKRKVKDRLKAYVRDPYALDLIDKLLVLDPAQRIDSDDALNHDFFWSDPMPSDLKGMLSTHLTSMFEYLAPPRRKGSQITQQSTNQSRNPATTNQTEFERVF

Experiments:
Conditions in all cases: K562; 2-18 h
ROR2 = ROR2 (UniProt Q01974); assay: number of time points (of 5) at which kinase-Nluc abundance scored as decreased, DMSO-normalised (count); higher = more persistent destabilization
RPS6KA1 = RPS6KA1 (UniProt Q15418); assay: as above
SPHK1 = SPHK1 (UniProt Q9NYA1); assay: as above
SRC = SRC (UniProt P12931); assay: as above
STK24 = STK24 (UniProt Q9Y6E0); assay: as above
STK38 = STK38 (UniProt Q15208); assay: as above
SYK = SYK (UniProt P43405); assay: as above
TEC = TEC (UniProt P42680); assay: as above
TYK2 = TYK2 (UniProt P29597); assay: as above
ULK3 = ULK3 (UniProt Q6PHR2); assay: as above
YES1 = YES1 (UniProt P07947); assay: as above
ZAK = ZAK (UniProt Q9NYL2); assay: as above
ZAP70 = ZAP70 (UniProt P43403); assay: as above
CDK4 = CDK4 (UniProt P11802); assay: number of time points (of 4; 2 h point missing) at which kinase-Nluc abundance scored as decreased, DMSO-normalised (count); higher = more persistent destabilization
CDK7 = CDK7 (UniProt P50613); assay: as above
CDK9 = CDK9 (UniProt P50750); assay: as above

Measured: number of time points

CN1CCN(Cc2ccc(-c3cnc4[nH]cc(-c5ccc6[nH]ccc6c5)c4c3)cc2)CC1 (2.5 µM)
1: ULK3
0: all other assays above

NC(=O)c1c(NC(=O)C2CC2)sc2c1CCCC2 (10 µM)
0: all assays above

COCCNc1cc(NC(=O)N2CCCc3cc(CN4CCOCC4=O)c(C=O)nc32)ncc1C#N (10 µM)
0: all assays above

3 compounds out of the list, sorted by formula weight, falling:
COCCNc1cc(NC(=O)N2CCCc3cc(CN4CCOCC4=O)c(C=O)nc32)ncc1C#N (10 µM)
0: all assays above

CN1CCN(Cc2ccc(-c3cnc4[nH]cc(-c5ccc6[nH]ccc6c5)c4c3)cc2)CC1 (2.5 µM)
1: ULK3
0: all other assays above

NC(=O)c1c(NC(=O)C2CC2)sc2c1CCCC2 (10 µM)
0: all assays above

Remaining list, next part

COc1cccc(-c2cc(=O)c3ccccc3o2)c1N (10 µM)
0: all assays above

O=C(C#Cc1ccccc1)c1cccc([N+](=O)[O-])c1 (10 µM)
0: all assays above

CCCCNc1ncc(C(=O)NCc2ccc(-n3ccnc3)cc2)c(NC2CCC(O)CC2)n1 (stereo not drawn) (10 µM)
0: all assays above

Cn1cnc2c(F)c(Nc3ccc(Br)cc3F)c(C(=O)NOCCO)cc21 [Binimetinib] (10 µM)
0: all assays above

Cc1cc(N2CCOCC2)ccc1Nc1nc(NC2CCCCC2)c2[nH]cnc2n1 (10 µM)
0: all assays above
